Results are given in words; binding and its absence hold for the method and conditions named. Binding seen in cells or lysates may run through a third protein. Here binding means that the protein was enriched with, or labelled near, the bait; the list need not be complete. Sequences can lack the tags named with a protein.

The chains behind the UniProt entries cited, without tags or fusion partners.
UniProt P12235: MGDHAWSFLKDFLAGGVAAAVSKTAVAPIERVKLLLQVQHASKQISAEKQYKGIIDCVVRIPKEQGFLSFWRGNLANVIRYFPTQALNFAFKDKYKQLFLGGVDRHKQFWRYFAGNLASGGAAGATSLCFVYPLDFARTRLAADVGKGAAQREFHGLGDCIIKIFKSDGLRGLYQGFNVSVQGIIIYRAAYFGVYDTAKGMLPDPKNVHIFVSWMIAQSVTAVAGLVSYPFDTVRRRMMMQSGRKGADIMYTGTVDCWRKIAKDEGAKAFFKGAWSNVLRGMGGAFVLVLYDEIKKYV

The target of the test is T1, FLAG-tagged wild-type full-length CDKAL1 (UniProt Q5VV42).
T1 sequence: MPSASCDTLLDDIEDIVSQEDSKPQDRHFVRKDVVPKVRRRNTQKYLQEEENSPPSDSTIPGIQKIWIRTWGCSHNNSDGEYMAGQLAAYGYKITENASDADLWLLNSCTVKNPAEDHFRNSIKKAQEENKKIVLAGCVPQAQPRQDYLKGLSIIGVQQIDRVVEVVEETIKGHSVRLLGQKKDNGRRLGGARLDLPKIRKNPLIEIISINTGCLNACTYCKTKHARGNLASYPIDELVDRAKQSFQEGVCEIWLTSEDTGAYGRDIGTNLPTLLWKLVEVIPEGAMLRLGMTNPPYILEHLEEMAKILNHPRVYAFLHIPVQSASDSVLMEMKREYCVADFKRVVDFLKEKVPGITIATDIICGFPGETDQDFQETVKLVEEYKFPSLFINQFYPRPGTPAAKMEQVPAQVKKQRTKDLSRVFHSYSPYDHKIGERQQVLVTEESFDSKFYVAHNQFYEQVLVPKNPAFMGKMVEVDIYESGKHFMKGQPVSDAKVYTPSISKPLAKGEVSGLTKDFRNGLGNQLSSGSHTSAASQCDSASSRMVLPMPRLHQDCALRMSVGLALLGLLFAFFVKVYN
The experiment in a line: affinity purification with mass spectrometry; FLAG-tagged CDKAL1 immunoprecipitated from transfected HEK293 cells, mass spectrometry as in the BioPlex project, analysis as in COMPASS.

With “ANT1/SLC25A4, endogenous (from UniProt P12235 1-298)”, the binding result is reported as “binds”.

The record behind these values is article PMC5641635.
